These are yes or no findings as the source states them, for the method shown.

Sequences of proteins named here, by UniProt entry; tags and fusion partners are left off. A change or cut given only in a name is not applied to a line headed by its entry.
UniProt Q96SZ5: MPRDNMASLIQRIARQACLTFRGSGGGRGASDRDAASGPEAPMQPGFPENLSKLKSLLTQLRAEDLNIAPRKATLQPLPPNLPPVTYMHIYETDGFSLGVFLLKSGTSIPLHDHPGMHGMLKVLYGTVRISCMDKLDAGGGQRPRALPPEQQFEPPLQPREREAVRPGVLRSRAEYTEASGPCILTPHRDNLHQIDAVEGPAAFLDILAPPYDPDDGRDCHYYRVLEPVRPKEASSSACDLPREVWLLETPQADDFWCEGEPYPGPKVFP

In this test the target is human cysteamine dioxygenase (ADO) C18S/C239S double-site variant (human) (UniProt Q96SZ5). The test can be described thus: SEC; gel filtration on a Superdex 200 column, 50 mM HEPES, 50 mM NaCl (pH 7.5); both purified. (SEC sorts molecules by how far they enter the pores of the column.)

For the substance “human cysteamine dioxygenase (ADO) C18S/C239S double-site variant (from UniProt Q96SZ5 1-270) (enzyme)”, the binding entry was “no binding”.

The record behind these values is paper PMC8503633.
